{"source": "PubChem BioAssay AID282", "about": "(DTP/NCI, 2004)", "test_system": "BDF1 mice, L1210 terephthalanilide-resistant leukemia ip, survival T/C", "assay": "NCI In Vivo Anticancer Drug Screen. Data for tumor model L1210 Leukemia resistant to A Terephthalanilide; NSC 38280 (intraperitoneal) in B6D2F1 (BDF1) mice", "conditions": "T/C endpoint: mean survival time, higher T/C = longer survival", "procedure": "The antitumor activity of compounds was measured in mice bearing transplantable tumors. Survival or tumor size were measured and the results are expressed as the measurement made in the treated group (T) divided by the measurement made in the vehicle treated control group (C). The tumor model used in this assay is L1210 Leukemia resistant to A Terephthalanilide; NSC 38280 (intraperitoneal) in B6D2F1 (BDF1) mice", "key": {"[1]": {"conditions": "dose: 0.37 mg/kg/injection, schedule: Q01DX Z (ip), vehicle: carboxymethylcellulose (CMC)"}, "[2]": {"conditions": "dose: 0.5 mg/kg/injection, schedule: Q01DX Z (ip), vehicle: carboxymethylcellulose (CMC)"}, "[3]": {"conditions": "dose: 0.75 mg/kg/injection, schedule: Q01DX Z (ip), vehicle: carboxymethylcellulose (CMC)"}, "[4]": {"conditions": "dose: 1.0 mg/kg/injection, schedule: Q01DX Z (ip), vehicle: carboxymethylcellulose (CMC)"}, "[5]": {"conditions": "dose: 2.0 mg/kg/injection, schedule: Q01DX Z (ip), vehicle: carboxymethylcellulose (CMC)"}, "[6]": {"conditions": "dose: 0.63 mg/kg/injection, schedule: Q01DX010 (ip), vehicle: saline"}, "[7]": {"conditions": "dose: 1.25 mg/kg/injection, schedule: Q01DX010 (ip), vehicle: saline"}, "[8]": {"conditions": "dose: 2.5 mg/kg/injection, schedule: Q01DX010 (ip), vehicle: saline"}, "[9]": {"conditions": "dose: 5.0 mg/kg/injection, schedule: Q01DX010 (ip), vehicle: saline"}, "[10]": {"conditions": "dose: 2.0 mg/kg/injection, schedule: Q01DX Z (ip), vehicle: saline"}, "[11]": {"conditions": "dose: 5.0 mg/kg/injection, schedule: Q01DX Z (ip), vehicle: saline"}}, "note": "The list is a part of this screen's results and no random one: it covers a few groups of compounds. Other doses and runs of a compound may be missing. T/C gives the treated animals as a percentage of the vehicle group. Where survival is the endpoint, the PubChem record calls one and a half times the control and up active, and a quarter to a half above the control has no call in these data; cut-offs in other NCI protocols can differ. Some T/C values are marked as having no survivor count here; that says nothing about deaths at the dose. Schedules are NCI's codes, taken here to give the interval after Q, in days (D) or hours (H), and the number of doses after X. Some entries hold several experiments; their values stand side by side, smallest first. Some schedule codes hold Z or #, which are not explained here."}
{"smiles": "NC(Cc1ccccc1N(CCCl)CCCl)C(=O)O", "note": "(configuration not stated)", "values": [{"measurement": "T/C", "setting": "dose: 0.13 mg/kg/injection, schedule: Q01DX010 (ip), vehicle: saline", "value": "123 % of control [survivor count not shown]"}, {"measurement": "T/C", "setting": "dose: 0.18 mg/kg/injection, schedule: Q01DX Z (ip), vehicle: carboxymethylcellulose (CMC)", "value": "177 % of control [survivor count not shown]"}, {"measurement": "T/C", "setting": "dose: 0.25 mg/kg/injection, schedule: Q01DX010 (ip), vehicle: saline", "value": "145 % of control [survivor count not shown]"}, {"measurement": "T/C", "setting": "[1]", "value": "191 % of control [survivor count not shown]"}, {"measurement": "T/C", "setting": "[2]", "value": "202 % of control [survivor count not shown]"}, {"measurement": "T/C", "setting": "[3]", "value": "227 % of control [survivor count not shown]"}, {"measurement": "T/C", "setting": "[4]", "value": "295 % of control [survivor count not shown]"}, {"measurement": "T/C", "setting": "dose: 1.5 mg/kg/injection, schedule: Q01DX Z (ip), vehicle: carboxymethylcellulose (CMC)", "value": "203 % of control [survivor count not shown]"}, {"measurement": "T/C", "setting": "[5]", "value": "128 % of control [survivor count not shown]"}, {"measurement": "T/C", "setting": "dose: 37.0 micrograms/kg/injection, schedule: Q01DX Z (ip), vehicle: saline", "value": "115 % of control [survivor count not shown]"}, {"measurement": "T/C", "setting": "dose: 50.0 micrograms/kg/injection, schedule: Q01DX Z (ip), vehicle: saline", "value": "119 % of control [survivor count not shown]"}, {"measurement": "T/C", "setting": "dose: 75.0 micrograms/kg/injection, schedule: Q01DX Z (ip), vehicle: saline", "value": "125 % of control [survivor count not shown]"}, {"measurement": "T/C", "setting": "dose: 100.0 micrograms/kg/injection, schedule: Q01DX Z (ip), vehicle: saline", "value": "136 % of control [survivor count not shown]"}]}
{"smiles": "NC(Cc1cccc(N(CCCl)CCCl)c1)C(=O)O", "note": "(configuration not stated)", "values": [{"measurement": "T/C", "setting": "dose: 0.25 mg/kg/injection, schedule: Q01DX Z (ip), vehicle: carboxymethylcellulose (CMC)", "value": "108 % of control [survivor count not shown]"}, {"measurement": "T/C", "setting": "[1]", "value": "116 % of control [survivor count not shown]"}, {"measurement": "T/C", "setting": "[2]", "value": "129 % of control [survivor count not shown]"}, {"measurement": "T/C", "setting": "[6]", "value": "124 [survivor count not shown] and 139 % of control [survivor count not shown]"}, {"measurement": "T/C", "setting": "[3]", "value": "153 % of control [survivor count not shown]"}, {"measurement": "T/C", "setting": "[4]", "value": "170 % of control [survivor count not shown]"}, {"measurement": "T/C", "setting": "[7]", "value": "102 [survivor count not shown] and 114 % of control [survivor count not shown]"}, {"measurement": "T/C", "setting": "[5]", "value": "205 % of control [survivor count not shown]"}, {"measurement": "T/C", "setting": "[8]", "value": "86 [survivor count not shown] and 197 % of control [survivor count not shown]"}, {"measurement": "T/C", "setting": "dose: 4.0 mg/kg/injection, schedule: Q01DX Z (ip), vehicle: carboxymethylcellulose (CMC)", "value": "196 % of control [survivor count not shown]"}, {"measurement": "T/C", "setting": "[9]", "value": "89 % of control [survivor count not shown]"}, {"measurement": "T/C", "setting": "dose: 5.0 mg/kg/injection, schedule: Q01DX Z (ip), vehicle: carboxymethylcellulose (CMC)", "value": "129 % of control [survivor count not shown]"}, {"measurement": "T/C", "setting": "dose: 6.0 mg/kg/injection, schedule: Q01DX Z (ip), vehicle: carboxymethylcellulose (CMC)", "value": "148 % of control [survivor count not shown]"}, {"measurement": "T/C", "setting": "dose: 7.5 mg/kg/injection, schedule: Q01DX Z (ip), vehicle: carboxymethylcellulose (CMC)", "value": "111 % of control [survivor count not shown]"}]}
{"smiles": "O=C(O)CN(CCCl)CCCl", "values": [{"measurement": "T/C", "setting": "dose: 0.25 mg/kg/injection, schedule: Q01DX Z (ip), vehicle: saline", "value": "107 [survivor count not shown] and 114 % of control [survivor count not shown]"}, {"measurement": "T/C", "setting": "dose: 0.37 mg/kg/injection, schedule: Q01DX Z (ip), vehicle: saline", "value": "117 [survivor count not shown] and 119 % of control [survivor count not shown]"}, {"measurement": "T/C", "setting": "dose: 0.5 mg/kg/injection, schedule: Q01DX Z (ip), vehicle: saline", "value": "122 [survivor count not shown] and 127 % of control [survivor count not shown]"}, {"measurement": "T/C", "setting": "[6]", "value": "123 [survivor count not shown] and 125 % of control [survivor count not shown]"}, {"measurement": "T/C", "setting": "dose: 0.75 mg/kg/injection, schedule: Q01DX Z (ip), vehicle: saline", "value": "119 [survivor count not shown] and 147 % of control [survivor count not shown]"}, {"measurement": "T/C", "setting": "dose: 1.0 mg/kg/injection, schedule: Q01DX Z (ip), vehicle: saline", "value": "136 [survivor count not shown] and 159 % of control [survivor count not shown]"}, {"measurement": "T/C", "setting": "[7]", "value": "113 [survivor count not shown] and 142 % of control [survivor count not shown]"}, {"measurement": "T/C", "setting": "[10]", "value": "139 [survivor count not shown] and 154 % of control [survivor count not shown]"}, {"measurement": "T/C", "setting": "[8]", "value": "113 [survivor count not shown] and 147 % of control [survivor count not shown]"}, {"measurement": "T/C", "setting": "dose: 3.5 mg/kg/injection, schedule: Q01DX Z (ip), vehicle: saline", "value": "127 [survivor count not shown] and 181 % of control [survivor count not shown]"}, {"measurement": "T/C", "setting": "[11]", "value": "136 [survivor count not shown], 146 [survivor count not shown], 168 % of control [survivor count not shown]"}]}
{"smiles": "ClCCN(CCCl)Cc1nc2ccccc2[nH]1", "values": [{"measurement": "T/C", "setting": "[7]", "value": "107 % of control [survivor count not shown]"}, {"measurement": "T/C", "setting": "[10]", "value": "125 % of control [survivor count not shown]"}, {"measurement": "T/C", "setting": "[8]", "value": "112 [survivor count not shown] and 118 % of control [survivor count not shown]"}, {"measurement": "T/C", "setting": "dose: 3.0 mg/kg/injection, schedule: Q01DX Z (ip), vehicle: saline", "value": "122 % of control [survivor count not shown]"}, {"measurement": "T/C", "setting": "dose: 4.0 mg/kg/injection, schedule: Q01DX Z (ip), vehicle: saline", "value": "148 % of control [survivor count not shown]"}, {"measurement": "T/C", "setting": "[9]", "value": "130 [survivor count not shown] and 133 % of control [survivor count not shown]"}, {"measurement": "T/C", "setting": "[11]", "value": "135 % of control [survivor count not shown]"}, {"measurement": "T/C", "setting": "dose: 6.0 mg/kg/injection, schedule: Q01DX Z (ip), vehicle: saline", "value": "174 % of control [survivor count not shown]"}, {"measurement": "T/C", "setting": "dose: 7.5 mg/kg/injection, schedule: Q01DX Z (ip), vehicle: saline", "value": "187 % of control [survivor count not shown]"}, {"measurement": "T/C", "setting": "dose: 10.0 mg/kg/injection, schedule: Q01DX010 (ip), vehicle: saline", "value": "107 [survivor count not shown] and 149 % of control [survivor count not shown]"}, {"measurement": "T/C", "setting": "dose: 10.0 mg/kg/injection, schedule: Q01DX Z (ip), vehicle: saline", "value": "132 % of control [survivor count not shown]"}, {"measurement": "T/C", "setting": "dose: 15.0 mg/kg/injection, schedule: Q01DX Z (ip), vehicle: saline", "value": "95 % of control [survivor count not shown]"}]}
{"smiles": "NC1CCCCC1.NP(=O)(O)N(CCCl)CCCl", "values": [{"measurement": "T/C", "setting": "dose: 15.6 mg/kg/injection, schedule: Q01DX010 (ip), vehicle: saline", "value": "142 [survivor count not shown] and 143 % of control [survivor count not shown]"}, {"measurement": "T/C", "setting": "dose: 31.3 mg/kg/injection, schedule: Q01DX010 (ip), vehicle: saline", "value": "154 [survivor count not shown], 179 [survivor count not shown], 224 % of control [survivor count not shown]"}, {"measurement": "T/C", "setting": "dose: 62.5 mg/kg/injection, schedule: Q01DX010 (ip), vehicle: saline", "value": "103 [survivor count not shown] and 182 % of control [survivor count not shown]"}]}
{"smiles": "ClCCNCCCl", "values": [{"measurement": "T/C", "setting": "dose: 9.4 mg/kg/injection, schedule: Q01DX010 (ip), vehicle: saline", "value": "113 % of control [survivor count not shown]"}, {"measurement": "T/C", "setting": "dose: 12.5 mg/kg/injection, schedule: Q01DX Z (ip), vehicle: saline", "value": "90 [survivor count not shown] and 117 % of control [survivor count not shown]"}, {"measurement": "T/C", "setting": "dose: 18.8 mg/kg/injection, schedule: Q01DX010 (ip), vehicle: saline", "value": "133 [survivor count not shown] and 147 % of control [survivor count not shown]"}, {"measurement": "T/C", "setting": "dose: 25.0 mg/kg/injection, schedule: Q01DX Z (ip), vehicle: saline", "value": "115 [survivor count not shown] and 117 % of control [survivor count not shown]"}, {"measurement": "T/C", "setting": "dose: 37.5 mg/kg/injection, schedule: Q01DX010 (ip), vehicle: saline", "value": "104 [survivor count not shown] and 159 % of control [survivor count not shown]"}, {"measurement": "T/C", "setting": "dose: 37.5 mg/kg/injection, schedule: Q01DX Z (ip), vehicle: saline", "value": "122 % of control [survivor count not shown]"}, {"measurement": "T/C", "setting": "dose: 50.0 mg/kg/injection, schedule: Q01DX Z (ip), vehicle: saline", "value": "181 % of control [survivor count not shown]"}, {"measurement": "T/C", "setting": "dose: 75.0 mg/kg/injection, schedule: Q01DX Z (ip), vehicle: saline", "value": "119 % of control [survivor count not shown]"}, {"measurement": "T/C", "setting": "dose: 100.0 mg/kg/injection, schedule: Q01DX Z (ip), vehicle: saline", "value": "105 % of control [survivor count not shown]"}]}
